These results are taken from doi:10.1101/2025.02.11.636922.

Common to all, as to test: TIRF microscopy in vitro motility assay
Test [1] concerns the target T1, GFP-Ncd (Drosophila melanogaster) (UniProt P20480).
T1 sequence: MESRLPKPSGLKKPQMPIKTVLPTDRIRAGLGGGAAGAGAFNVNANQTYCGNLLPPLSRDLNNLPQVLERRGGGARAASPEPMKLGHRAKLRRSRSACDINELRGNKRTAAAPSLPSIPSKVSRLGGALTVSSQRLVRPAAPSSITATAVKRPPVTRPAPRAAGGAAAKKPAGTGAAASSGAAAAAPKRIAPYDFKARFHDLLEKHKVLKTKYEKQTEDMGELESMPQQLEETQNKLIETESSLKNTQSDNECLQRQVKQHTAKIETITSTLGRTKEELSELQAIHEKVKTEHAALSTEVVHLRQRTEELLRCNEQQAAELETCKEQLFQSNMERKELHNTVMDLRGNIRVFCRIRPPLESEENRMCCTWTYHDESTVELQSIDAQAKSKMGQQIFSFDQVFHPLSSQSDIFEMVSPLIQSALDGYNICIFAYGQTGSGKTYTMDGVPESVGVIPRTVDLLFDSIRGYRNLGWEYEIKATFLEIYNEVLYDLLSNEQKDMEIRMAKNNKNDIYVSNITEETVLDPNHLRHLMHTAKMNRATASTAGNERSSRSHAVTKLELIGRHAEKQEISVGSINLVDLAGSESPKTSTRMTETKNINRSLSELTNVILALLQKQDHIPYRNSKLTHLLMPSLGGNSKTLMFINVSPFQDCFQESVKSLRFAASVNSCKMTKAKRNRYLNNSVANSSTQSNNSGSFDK

For test [2], the target named is T2, GFP-KlpA*Ncd-#2 (Drosophila melanogaster | Aspergillus nidulans) (UniProt P20480).
T2 sequence: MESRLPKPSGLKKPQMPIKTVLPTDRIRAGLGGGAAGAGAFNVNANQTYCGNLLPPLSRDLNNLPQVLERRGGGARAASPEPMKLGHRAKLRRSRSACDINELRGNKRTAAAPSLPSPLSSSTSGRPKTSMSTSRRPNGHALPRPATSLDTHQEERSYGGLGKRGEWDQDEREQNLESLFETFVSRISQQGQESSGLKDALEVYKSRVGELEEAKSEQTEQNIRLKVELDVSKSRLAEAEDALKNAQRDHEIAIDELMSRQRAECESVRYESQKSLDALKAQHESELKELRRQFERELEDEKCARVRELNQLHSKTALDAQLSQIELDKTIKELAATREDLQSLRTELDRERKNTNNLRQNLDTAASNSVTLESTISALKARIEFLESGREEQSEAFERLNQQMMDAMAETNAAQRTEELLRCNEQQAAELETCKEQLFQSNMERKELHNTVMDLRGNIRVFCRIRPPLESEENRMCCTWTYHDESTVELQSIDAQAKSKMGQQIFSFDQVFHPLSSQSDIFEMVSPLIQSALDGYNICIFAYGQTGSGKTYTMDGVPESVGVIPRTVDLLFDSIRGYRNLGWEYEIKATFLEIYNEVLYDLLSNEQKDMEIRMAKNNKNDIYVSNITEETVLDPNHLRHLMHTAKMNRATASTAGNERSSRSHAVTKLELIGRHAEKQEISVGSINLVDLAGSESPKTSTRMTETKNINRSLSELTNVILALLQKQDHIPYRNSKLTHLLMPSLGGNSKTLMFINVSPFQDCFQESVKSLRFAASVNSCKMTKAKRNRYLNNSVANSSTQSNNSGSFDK

Test [3] deals with T3, GFP-KlpA*Ncd-#1 (Aspergillus nidulans | Drosophila melanogaster) (UniProt P28739).
T3 sequence: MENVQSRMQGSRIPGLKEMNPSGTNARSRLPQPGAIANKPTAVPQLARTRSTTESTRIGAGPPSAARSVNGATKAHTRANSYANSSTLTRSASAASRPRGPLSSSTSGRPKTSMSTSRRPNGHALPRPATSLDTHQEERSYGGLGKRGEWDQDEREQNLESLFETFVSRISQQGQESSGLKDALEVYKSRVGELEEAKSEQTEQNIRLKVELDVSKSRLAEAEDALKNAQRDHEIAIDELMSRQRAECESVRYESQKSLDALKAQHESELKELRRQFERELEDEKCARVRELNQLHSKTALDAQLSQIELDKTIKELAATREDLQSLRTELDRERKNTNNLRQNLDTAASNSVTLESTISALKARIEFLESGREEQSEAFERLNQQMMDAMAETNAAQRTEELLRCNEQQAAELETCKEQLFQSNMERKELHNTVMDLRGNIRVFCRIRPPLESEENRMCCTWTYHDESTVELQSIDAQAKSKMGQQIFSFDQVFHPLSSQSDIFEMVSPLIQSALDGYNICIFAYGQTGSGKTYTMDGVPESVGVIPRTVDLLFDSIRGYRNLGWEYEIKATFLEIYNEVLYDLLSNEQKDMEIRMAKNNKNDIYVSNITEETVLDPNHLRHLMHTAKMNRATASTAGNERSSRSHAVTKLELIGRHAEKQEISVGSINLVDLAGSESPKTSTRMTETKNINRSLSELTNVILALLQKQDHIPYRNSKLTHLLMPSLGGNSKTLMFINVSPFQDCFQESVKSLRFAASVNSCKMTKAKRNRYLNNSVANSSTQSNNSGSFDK

Test [4] deals with T4, GFP-KlpA (Aspergillus nidulans) (UniProt P28739).
T4 sequence: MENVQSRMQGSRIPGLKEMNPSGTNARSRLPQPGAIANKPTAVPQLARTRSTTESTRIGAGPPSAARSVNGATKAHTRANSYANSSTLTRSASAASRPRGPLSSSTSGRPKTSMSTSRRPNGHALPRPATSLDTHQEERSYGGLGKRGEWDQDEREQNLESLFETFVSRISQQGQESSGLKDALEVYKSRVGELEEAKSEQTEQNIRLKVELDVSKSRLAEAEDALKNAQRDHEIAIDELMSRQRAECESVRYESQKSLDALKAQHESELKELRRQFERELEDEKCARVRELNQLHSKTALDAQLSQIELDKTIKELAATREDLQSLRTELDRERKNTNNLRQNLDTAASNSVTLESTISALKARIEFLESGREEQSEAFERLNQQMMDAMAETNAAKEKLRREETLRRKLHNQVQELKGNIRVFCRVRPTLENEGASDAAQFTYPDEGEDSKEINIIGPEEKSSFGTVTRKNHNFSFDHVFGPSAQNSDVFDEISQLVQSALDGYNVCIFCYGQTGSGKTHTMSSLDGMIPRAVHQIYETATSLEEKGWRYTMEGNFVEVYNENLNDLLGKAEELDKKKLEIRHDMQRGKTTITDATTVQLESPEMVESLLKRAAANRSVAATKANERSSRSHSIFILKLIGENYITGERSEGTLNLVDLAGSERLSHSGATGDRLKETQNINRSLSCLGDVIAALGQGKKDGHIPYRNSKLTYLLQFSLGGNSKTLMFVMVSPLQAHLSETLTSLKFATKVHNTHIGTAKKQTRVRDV

No constants are given. Whether binding was seen depends on the method and setting. For some of these results: Binding can be weak; no strength is given. Sequences can lack the tags named with a protein.

As to TinA-mCherry (A. nidulans), the binding result in test [1] is listed as “no binding”; in test [2], “binds”; in test [3] it was “binds”.

For the substance “TinAΔC1-mCherry (A. nidulans) (domain or fragment)”, in test [4], the binding entry is “binds”.
